Experimental data: PMC7414041

Protein sequences, listed by entry. Tags and fused reporters are not part of them.
UniProt Q00610: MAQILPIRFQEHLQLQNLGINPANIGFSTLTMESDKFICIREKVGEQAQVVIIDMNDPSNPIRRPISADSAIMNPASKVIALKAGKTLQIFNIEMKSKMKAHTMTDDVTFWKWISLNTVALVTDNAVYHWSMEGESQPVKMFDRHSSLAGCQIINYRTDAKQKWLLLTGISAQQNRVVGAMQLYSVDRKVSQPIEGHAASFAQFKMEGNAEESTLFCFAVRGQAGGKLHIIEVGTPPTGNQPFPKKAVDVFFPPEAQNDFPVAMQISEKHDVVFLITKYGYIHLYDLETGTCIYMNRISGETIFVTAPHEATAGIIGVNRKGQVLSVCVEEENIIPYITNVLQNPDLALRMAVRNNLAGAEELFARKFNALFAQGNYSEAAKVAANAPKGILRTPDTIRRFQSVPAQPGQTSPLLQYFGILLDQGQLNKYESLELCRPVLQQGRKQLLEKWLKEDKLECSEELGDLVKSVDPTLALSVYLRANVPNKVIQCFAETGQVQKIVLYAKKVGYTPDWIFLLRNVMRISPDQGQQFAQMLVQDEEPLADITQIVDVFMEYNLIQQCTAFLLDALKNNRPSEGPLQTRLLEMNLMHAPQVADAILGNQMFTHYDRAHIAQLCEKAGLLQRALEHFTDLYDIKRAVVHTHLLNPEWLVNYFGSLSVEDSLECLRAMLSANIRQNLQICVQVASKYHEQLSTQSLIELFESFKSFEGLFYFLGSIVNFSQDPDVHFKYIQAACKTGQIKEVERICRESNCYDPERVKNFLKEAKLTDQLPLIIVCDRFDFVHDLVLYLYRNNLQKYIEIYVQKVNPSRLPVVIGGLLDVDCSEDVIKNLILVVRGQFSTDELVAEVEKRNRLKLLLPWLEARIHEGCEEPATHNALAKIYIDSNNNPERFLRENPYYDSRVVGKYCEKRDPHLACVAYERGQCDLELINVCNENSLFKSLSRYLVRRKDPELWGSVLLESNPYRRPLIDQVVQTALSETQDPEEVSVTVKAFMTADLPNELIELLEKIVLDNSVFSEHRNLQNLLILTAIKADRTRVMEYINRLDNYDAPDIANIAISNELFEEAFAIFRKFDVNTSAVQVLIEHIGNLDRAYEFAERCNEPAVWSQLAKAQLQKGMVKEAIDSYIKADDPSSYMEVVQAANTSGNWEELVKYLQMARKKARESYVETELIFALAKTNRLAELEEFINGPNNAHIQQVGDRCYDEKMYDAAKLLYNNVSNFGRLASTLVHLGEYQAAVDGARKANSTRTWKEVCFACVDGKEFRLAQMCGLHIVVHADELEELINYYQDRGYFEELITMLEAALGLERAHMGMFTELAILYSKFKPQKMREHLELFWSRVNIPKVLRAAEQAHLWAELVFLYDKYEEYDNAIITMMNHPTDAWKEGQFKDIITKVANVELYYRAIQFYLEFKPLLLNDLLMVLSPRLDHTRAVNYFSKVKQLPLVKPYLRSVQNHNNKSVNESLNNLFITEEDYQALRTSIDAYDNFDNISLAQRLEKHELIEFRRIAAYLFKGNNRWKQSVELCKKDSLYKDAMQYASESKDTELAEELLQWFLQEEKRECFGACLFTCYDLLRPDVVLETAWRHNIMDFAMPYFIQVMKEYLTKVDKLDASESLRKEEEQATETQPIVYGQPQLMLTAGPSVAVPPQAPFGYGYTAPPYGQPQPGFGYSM
UniProt P09874: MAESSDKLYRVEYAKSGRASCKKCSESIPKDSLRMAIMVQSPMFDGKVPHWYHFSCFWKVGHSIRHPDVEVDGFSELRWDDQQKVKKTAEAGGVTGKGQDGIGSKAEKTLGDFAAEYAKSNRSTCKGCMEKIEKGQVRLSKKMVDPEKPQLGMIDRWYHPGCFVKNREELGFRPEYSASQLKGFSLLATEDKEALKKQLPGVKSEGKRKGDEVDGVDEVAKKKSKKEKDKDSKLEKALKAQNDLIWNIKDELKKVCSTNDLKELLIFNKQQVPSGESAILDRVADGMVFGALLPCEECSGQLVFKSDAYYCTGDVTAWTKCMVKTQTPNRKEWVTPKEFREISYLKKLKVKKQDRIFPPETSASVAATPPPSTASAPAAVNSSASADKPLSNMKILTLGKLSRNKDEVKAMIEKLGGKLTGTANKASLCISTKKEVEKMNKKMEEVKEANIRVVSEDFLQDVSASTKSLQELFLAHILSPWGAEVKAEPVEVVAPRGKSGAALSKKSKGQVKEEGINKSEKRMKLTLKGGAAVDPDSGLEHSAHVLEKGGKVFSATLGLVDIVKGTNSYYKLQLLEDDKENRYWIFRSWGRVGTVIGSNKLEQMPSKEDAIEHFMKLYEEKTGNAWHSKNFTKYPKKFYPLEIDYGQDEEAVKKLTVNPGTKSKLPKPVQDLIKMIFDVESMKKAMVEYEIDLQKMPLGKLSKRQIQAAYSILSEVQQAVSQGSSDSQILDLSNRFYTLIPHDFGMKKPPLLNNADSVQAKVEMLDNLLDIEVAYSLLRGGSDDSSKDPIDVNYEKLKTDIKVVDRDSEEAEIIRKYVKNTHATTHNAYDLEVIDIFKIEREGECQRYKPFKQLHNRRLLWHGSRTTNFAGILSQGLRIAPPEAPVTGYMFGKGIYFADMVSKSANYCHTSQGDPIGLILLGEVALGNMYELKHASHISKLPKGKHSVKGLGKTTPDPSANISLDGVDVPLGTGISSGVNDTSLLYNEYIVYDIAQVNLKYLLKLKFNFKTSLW

Tests used:
[1] = target: hepatocyte growth factor receptor (MET), endogenous (human (endogenous in HepG2)) (UniProt P08581); test: affinity purification with mass spectrometry; extracts of HepG2 cells, endogenous MET immunoprecipitated, LC-MS/MS; candidates bound the MET beads but not the isotype control and overlapped with the Flag-MET data set
[2] = target: Flag-tagged MET protein (Flag-MET) (UniProt P08581); test: affinity purification with mass spectrometry; extracts of 293T cells expressing Flag-MET, immunoprecipitated, LC-MS/MS; candidates bound the Flag-MET-immobilized beads but not the isotype control and overlapped with the endogenous MET data set

Row | Substance | binding [1] | binding [2]
1 | clathrin heavy chain (CLTC) (from UniProt Q00610 1-1675) | binds | binds
2 | poly (ADP-ribose) polymerase 1 (PARP1) (from UniProt P09874 1-1014) | binds | binds

Results are given in words; binding and its absence hold for the method and conditions named. Binding seen in cells or lysates may run through a third protein. A yes stands for co-enrichment or nearness to the bait. Other partners may have been found.
